Measurements: US20250320501A1, “PALMITOYLATION OF THE ALTERNATIVE AMINO TERMINUS OF THE BTK-C ISOFORM CONTROLS SUBCELLULAR DISTRIBUTION AND SIGNALING” (The Research Foundation for the State University of New York, priority 2022, published 2025)
At least one structure is not confirmed: it was looked up by name or label, or the drawing left a doubt.

How the values were obtained:
BTK-A GFP fusion = assay: Localization of BTK-A GFP fusion under pharmacological PI3K inhibition; assay type: cell-based, human
BTK-C GFP fusion = assay: Localization of BTK-C GFP fusion under pharmacological PI3K inhibition; assay type: cell-based, human

SMILES: C[C@H](Nc1ncnc2nc[nH]c12)c1cc2cccc(Cl)c2c(=O)n1-c1ccccc1 [IPI-145, Duvelisib]
- membrane signal of BTK-A GFP fusion (BTK-A GFP fusion): decreases the membrane signal
- degree of membrane localization (BTK-C GFP fusion; PTEN- LNCaP C42b prostate cancer cell line, versus controls (FIG. 4B)): dramatically decreases
- membrane signal of BTK-C GFP fusion (BTK-C GFP fusion; pharmacological inhibition of PI3K): decreases the membrane signal
